Binding signal data for 42 sequences are collected here from paper PMC7819943, “Rice protein-binding microarrays: a tool to detect cis-acting elements near promoter regions in rice”.

Some of the results follow.

This assay deals with T1, OsSMF1 (Oryza sativa, UniProt Q6ZLB0 1-436).
T1 sequence: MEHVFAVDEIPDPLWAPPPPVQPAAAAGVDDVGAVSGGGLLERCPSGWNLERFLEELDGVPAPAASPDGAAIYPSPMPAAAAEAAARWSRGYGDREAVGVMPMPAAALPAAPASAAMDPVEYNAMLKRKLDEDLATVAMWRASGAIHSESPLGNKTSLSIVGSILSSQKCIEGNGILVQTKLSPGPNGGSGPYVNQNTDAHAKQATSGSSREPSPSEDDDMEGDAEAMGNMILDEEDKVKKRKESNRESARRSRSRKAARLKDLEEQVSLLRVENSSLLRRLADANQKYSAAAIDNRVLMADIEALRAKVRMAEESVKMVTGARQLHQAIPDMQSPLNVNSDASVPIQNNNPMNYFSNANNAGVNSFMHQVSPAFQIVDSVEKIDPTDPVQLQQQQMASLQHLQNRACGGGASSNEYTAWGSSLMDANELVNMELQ
As to the kind of experiment: protein-binding microarray (RPBM); PBS, 2% BSA, 51.3 ng/ul salmon testes DNA, 50 uM zinc acetate, 200 nM TF, 25 C, 1 h; high values mean tight binding. The following applies: protein: recombinant; tags: N-terminal polyhistidine and DsRed monomer fusion (pET32a); chain copies: 2; label: CyDye5-dUTP incorporated in the synthesized complementary strand; 3' TTTTT single-stranded linker to array surface; dsDNA, one strand shown. The method in brief: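 Binding signal is reported as fluorescence intensity per feature (arbitrary units) from an Axon 4000B scanner. Incubation used 200 nM of each Ni–NTA-purified, N-terminally polyhistidine- and DsRed-fused transcription factor from E. coli BL21-CodonPlus on a double-stranded custom Agilent array for 1 h at 25 °C, with 50 µM zinc acetate in the buffer, followed by washing.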
For “ATTGCCTCGTCCTCGTAGCGCCGTCAGCCGTGTTGCAGGCCGGAGTCACCTAGTGCAG”, the binding signal was 4490 fluorescence intensity (a.u.).

As for “CCCAAGAAACACCCGCAAGTCAAGTCTCGTCATGGGCCTTCGGAGTCACCTAGTGCAG”, the binding signal is 4750 fluorescence intensity (a.u.).

Take “AGCATGCACCTTGATCACGGGAACGAGCTAGCGAGAGGCACGGAGTCACCTAGTGCAG”: the binding signal was 3720 fluorescence intensity (a.u.).

Turning to “GAAAAGACATATAATACGACGTGTGTTTTATTGCTTAAATCGGAGTCACCTAGTGCAG”, the binding signal was 6320 fluorescence intensity (a.u.).

On to “GCTGGATTCGAGGATGATCTCCATGTCGAAAGCGGCCTCACGGAGTCACCTAGTGCAG”, for which the binding signal was 3750 fluorescence intensity (a.u.).

Regarding “GCAAAAGGGACTCATGAACAGCAAATCAGGGCCAAGTGGCCGGAGTCACCTAGTGCAG”, the binding signal is 3570 fluorescence intensity (a.u.).

“TATCCATGCCTAACATTAGACCATCCGTCTTATTTGAAAACGGAGTCACCTAGTGCAG”: the binding signal is 11600 fluorescence intensity (a.u.).

As to “CGGCCCATGTTAGTACCTAAGTACATGCGGCTTATATTAGCGGAGTCACCTAGTGCAG”, the binding signal was 3810 fluorescence intensity (a.u.).

With “TCACAAGTCGTTCCTCTTGTGCTTTTCACCTCGACTTGGCCGGAGTCACCTAGTGCAG”, the binding signal was 25300 fluorescence intensity (a.u.).

Consider “GGCTCCCTAAGGTACAGGGACAGGGATGGATTCCGTTGCTCGGAGTCACCTAGTGCAG”, for which the binding signal is 3300 fluorescence intensity (a.u.).

For the sequence “GGAGTAGATATTATCACTAGCTAGTCACACGGACACAGTGCGGAGTCACCTAGTGCAG”, the binding signal is 4900 fluorescence intensity (a.u.).

As to “TTTCACTTTTCAGCCATGAGGCTGTCGTCCCTGCTGTTCTCGGAGTCACCTAGTGCAG”, the binding signal was 15900 fluorescence intensity (a.u.).

For “CATGCAGTCAATAGTGTGACTGTAACTTAAACGGTCACACCGGAGTCACCTAGTGCAG”, the binding signal is 3750 fluorescence intensity (a.u.).

On to “GCGACTTGGTGGCTCGTACAGCTCACCCTCCTGAAACGAACGGAGTCACCTAGTGCAG”, for which the binding signal is 3680 fluorescence intensity (a.u.).

As for “GGGGCTAGTAGCTTGGCCAGCGTGACGAGGCGGAAGCCCCCGGAGTCACCTAGTGCAG”, the binding signal is 5060 fluorescence intensity (a.u.).

On to “ACTTGTCTGGTACATGTGTGCACAAAGATTGTAATTTTGTCGGAGTCACCTAGTGCAG”, for which the binding signal was 19700 fluorescence intensity (a.u.).

Regarding “CCCAGAAACGAAGCCCATTGGGTAAGGACACGCGTCGGCGCGGAGTCACCTAGTGCAG”, the binding signal is 4370 fluorescence intensity (a.u.).

On to “GCTTAATAAATTCGTCTCGCGGTTTAATGTTGGATTCTGTCGGAGTCACCTAGTGCAG”, for which the binding signal was 3670 fluorescence intensity (a.u.).

With “GGCCACAACCGTGTCTGCCAACGCCTCTTCCTCCTTGACTCGGAGTCACCTAGTGCAG”, the binding signal was 3660 fluorescence intensity (a.u.).

Take “GCAAAATTTGATGGCATGGCGGCTGAGTTATGTATAGGTGCGGAGTCACCTAGTGCAG”: the binding signal is 3900 fluorescence intensity (a.u.).

In the case of “CTCGCGTGCGTGTGTGTTGTGCTTTCCAGTGATCTCGCCGCGGAGTCACCTAGTGCAG”, the binding signal was 3670 fluorescence intensity (a.u.).

Take “GGTCTGACTCCACAATGCTAAATGCGTTGTACTGTAGCAGCGGAGTCACCTAGTGCAG”: the binding signal was 3220 fluorescence intensity (a.u.).

Take “GGCTAGCCAGCGACCGACCGGCGGCCACCGTGGCGGGATTCGGAGTCACCTAGTGCAG”: the binding signal was 4850 fluorescence intensity (a.u.).

With “ATGTGCACAATGCACAGTGCACGTGTGTTTTCTGTGTAACCGGAGTCACCTAGTGCAG”, the binding signal is 4540 fluorescence intensity (a.u.).

As to “AATTTGCTAGTCCCCACAAGTACGTGGCACTCTGCCATGTCGGAGTCACCTAGTGCAG”, the binding signal was 13900 fluorescence intensity (a.u.).

With “CTCCAGGTCATCGATCCAGGTGTCATTTTCAATGCCTTCACGGAGTCACCTAGTGCAG”, the binding signal was 4190 fluorescence intensity (a.u.).

“CGTTTGGCCGCCAAGTCCTCATTCAGTCCAGGTCAGGGCGCGGAGTCACCTAGTGCAG”: the binding signal is 4760 fluorescence intensity (a.u.).

Regarding “ACCACAGGGGCTTCTCCCTCGGCGCCGCCTGCTCCGGCGACGGAGTCACCTAGTGCAG”, the binding signal was 23500 fluorescence intensity (a.u.).

On to “AGTTGAGGGACCTTGCGTGTACTTTTCCCTTTATTTTCTCCGGAGTCACCTAGTGCAG”, for which the binding signal is 4210 fluorescence intensity (a.u.).

For the sequence “GCTCAACGCCCTTCCTCACTCGCTTCGCACGTGCCTCCCTCGGAGTCACCTAGTGCAG”, the binding signal was 3290 fluorescence intensity (a.u.).

Take “TAACCAATCCAACTATTCTGGGCAGCCAAATTGACTCAGACGGAGTCACCTAGTGCAG”: the binding signal is 5030 fluorescence intensity (a.u.).

Turning to “GTTTATTTCATGTGTAGGTGACTCGATGCCTCGGGAGAGTCGGAGTCACCTAGTGCAG”, the binding signal was 3700 fluorescence intensity (a.u.).

As to “CCACCTCGGTACGTGTTCGACATGTTGCGCATATTTGATCCGGAGTCACCTAGTGCAG”, the binding signal is 4750 fluorescence intensity (a.u.).

Turning to “TAAGAGATTATTCGTGTGATGACGTATGAAGCAAGCGCAACGGAGTCACCTAGTGCAG”, the binding signal was 8790 fluorescence intensity (a.u.).

Turning to “CGAACCGGCCGGAGACATCCTCACCGATGACGATGACGATCGGAGTCACCTAGTGCAG”, the binding signal was 3840 fluorescence intensity (a.u.).

For the sequence “CATGTGGACGTTCACCCGAGTATTTAAAACAGTTTCCGTGCGGAGTCACCTAGTGCAG”, the binding signal is 7860 fluorescence intensity (a.u.).

On to “GTGGTGGGTATGTTGGCGTTATGATTCGATGCCCCTGAACCGGAGTCACCTAGTGCAG”, for which the binding signal is 3870 fluorescence intensity (a.u.).

Turning to “CCGCACACTCCCGTCACGTTGCGGTACGGACACCCACACACGGAGTCACCTAGTGCAG”, the binding signal is 4580 fluorescence intensity (a.u.).

“CGAGCCGAACTTCCCTGACGCCGAAGTAGAGCGGCTCGCCCGGAGTCACCTAGTGCAG”: the binding signal is 3460 fluorescence intensity (a.u.).

Take “CGAGCTTGGTACGATTGGCGAGCAAGGCCATGCATGTCCACGGAGTCACCTAGTGCAG”: the binding signal was 3520 fluorescence intensity (a.u.).

For “CGGTGCACACCACCGGCGCTTCGTGTGCTACGCCACCACGCGGAGTCACCTAGTGCAG”, the binding signal was 24800 fluorescence intensity (a.u.).

For the sequence “AGGAGTCAAAGTAACACATCATTGTAAGCGGCAAGTACTTCGGAGTCACCTAGTGCAG”, the binding signal is 4070 fluorescence intensity (a.u.).
